Assay results as given in PubChem BioAssay AID1671190 (National Center for Advancing Translational Sciences (NCATS), 2021).
Among all 580,000 compounds or so, about 6,100 (1.1%) were called active. Inconclusive means that the source gave no clear call. Such entries were picked first, then a sample of the others. The call rests on the fitted dose curve; in most records, active means well fitted inhibition curve with a large enough effect; inconclusive means small, poorly fitted or top-dose-only effect, or another doubt; inactive means no such curve, though single readings can be large or run the other way. Where the call is inconclusive, the potency comes from a doubtful curve fit.

Sequences of proteins named here, by UniProt entry; tags and fusion partners are left off. A change or cut given only in a name is not applied to a line headed by its entry.
UniProt P18054: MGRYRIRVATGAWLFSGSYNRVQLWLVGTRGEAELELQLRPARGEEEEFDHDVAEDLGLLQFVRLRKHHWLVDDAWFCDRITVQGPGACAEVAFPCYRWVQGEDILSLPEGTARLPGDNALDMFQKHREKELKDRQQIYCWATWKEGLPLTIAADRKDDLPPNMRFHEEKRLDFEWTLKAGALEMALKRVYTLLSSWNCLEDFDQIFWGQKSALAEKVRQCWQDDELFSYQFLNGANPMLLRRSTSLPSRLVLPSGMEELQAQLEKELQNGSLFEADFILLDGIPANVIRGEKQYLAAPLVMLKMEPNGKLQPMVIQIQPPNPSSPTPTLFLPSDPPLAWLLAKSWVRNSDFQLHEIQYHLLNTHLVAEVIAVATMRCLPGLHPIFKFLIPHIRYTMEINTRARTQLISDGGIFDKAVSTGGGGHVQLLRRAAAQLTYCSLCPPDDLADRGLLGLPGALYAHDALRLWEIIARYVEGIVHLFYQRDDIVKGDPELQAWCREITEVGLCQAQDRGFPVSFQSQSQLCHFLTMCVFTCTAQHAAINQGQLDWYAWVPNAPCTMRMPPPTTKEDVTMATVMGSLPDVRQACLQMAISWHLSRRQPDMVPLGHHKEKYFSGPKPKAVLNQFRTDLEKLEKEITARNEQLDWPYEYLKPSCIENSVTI

Target: Polyunsaturated fatty acid lipoxygenase ALOX12 (Homo sapiens) (UniProt P18054)
Assay: Primary qHTS assay for inhibitors of human arachidonate 12S-lipoxygenase (ALOX12): Round 2
Conditions: purified 12hLO, xylenol orange hydroperoxide absorbance; activity change, negative = inhibition: at 108 µM (top of the series) unless noted
Method in brief: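 Purified human 12hLO at 150 nM in 25 mM Hepes, 0.01% Triton X-100, pH 7.0, preincubated 15 min at room temperature with compound. Reaction started with 40 uM arachidonic acid, 30 min at room temperature. Hydroperoxide measured by Fe-xylenol orange, 573/405 nm absorbance ratio.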
On the % scale 0 is the no-effect control and ±100 the full control effect; potency means the concentration at half of the fitted maximal effect.

| SMILES | Potency | activity change, negative = inhibition |
| --- | --- | --- |
| CCc1nc2ccc(C(=O)NCCc3ccccc3OC)cc2nc1CC | inconclusive: 1 µM [inhibitor, full curve, poor fit] |  |
| CCC(c1nnnn1Cc1ccccc1)N(Cc1cc2cc(OC)ccc2[nH]c1=O)CC1CCCO1 (configuration not stated) | inconclusive: 28.2 µM [inhibitor, partial curve, poor fit] |  |
| Cc1cc(=O)c(C(=O)O)cn1Nc1ccc(Cl)cc1 | inconclusive: 1.78 µM [inhibitor, full curve, poor fit] |  |
| COc1ccc(-c2ccc(CN3C(CC(C)C)C(=O)N(Cc4cn(CCC5OCCCO5)nn4)CCS3(=O)=O)cc2)cc1OC (configuration not stated) | inconclusive: 44.7 µM [inhibitor, single point] |  |
| Cc1ccc(-c2noc([C@@H]3C[C@@H](O)CN3CC3CC3)n2)cc1F | inconclusive: 20 µM [inhibitor, full curve, poor fit] |  |
| Cn1cnc2c1c(=O)[nH]c(=O)n2Cc1ccccc1 | inconclusive: 50.1 µM [inhibitor, single point] |  |
| Oc1ccc(-c2csc(Nc3cccnc3)n2)cc1 | inconclusive: 50.1 µM [inhibitor, partial curve, poor fit] |  |
| C#CCOCCOCCOCCNc1nc(N2CCN(C(=O)Cn3cc(CCCCN)nn3)CC2)nc(N2CCN(C(=O)[C@H](CCCCN)n3cc(CCCC)nn3)CC2)n1 | inconclusive: 31.6 µM [inhibitor, partial curve, poor fit] |  |
| COC(=O)c1cc2c(s1)-c1ccccc1CC2 | inconclusive: 100 µM [inhibitor, single point] |  |
| CCc1ccc(N2CC(c3ncon3)CC2=O)cc1 (configuration not stated) |  | inactive: 12.2% |
| COC1C(CO)OC(n2cnc3c(=S)nc(N)[nH]c32)C1O (configuration not stated) | inconclusive: 44.7 µM [inhibitor, partial curve] |  |
| Cc1cccn2c(=O)c3cc(C(=O)NCC4CCCO4)c(=N)n(CCN4CCOCC4)c3nc12 (configuration not stated) | inconclusive: 31.6 µM [inhibitor, single point] |  |
| CCCCN1CC(c2nc3ccccc3n2CCCCOc2cc(C)ccc2C)CC1=O (configuration not stated) | inconclusive: 50.1 µM [inhibitor, partial curve, poor fit] |  |
| O=C(Nc1ccc(Cl)c(-c2nc3ncccc3o2)c1)c1cccs1 |  | inactive: -68.8% |
| CC(C)(C)Cc1nnc(NC(=O)CSc2ccccc2)s1 | active: 17.8 µM |  |
| Cc1ccc(NC(=O)CC2SC3=NCCCN3C2=O)c(C)c1 (configuration not stated) | inconclusive: 89.1 µM [inhibitor, single point] |  |
| CCOC(=O)Nc1ccc2c(c1)N(C(=O)CCN1CCN(CCO)CC1)c1ccccc1CC2 | inconclusive: 0.631 µM [inhibitor, full curve, poor fit] |  |
| Clc1ccc(C2=NN(c3ccccc3)C(c3ccco3)C2)cc1 (configuration not stated) |  | inactive: 0% |
| S=C1NC(C23CC4CC(CC(C4)C2)C3)=CC(c2ccc3c(c2)OCO3)N1 (configuration not stated) | inconclusive: 3.98 µM [inhibitor, full curve, poor fit] |  |
| COCCCNS(=O)(=O)c1ccc2c3c(cccc13)C(=O)S2 |  | inactive: 11.7% |
| Oc1ccc(Oc2ccc(Oc3ccc(O)cc3)cc2)cc1 | inconclusive: 100 µM [inhibitor, single point] |  |

Nothing new here: an excerpt of the list.

| SMILES | Potency | activity change, negative = inhibition |
| --- | --- | --- |
| CCC(c1nnnn1Cc1ccccc1)N(Cc1cc2cc(OC)ccc2[nH]c1=O)CC1CCCO1 (configuration not stated) | inconclusive: 28.2 µM [inhibitor, partial curve, poor fit] |  |
| Cc1cc(=O)c(C(=O)O)cn1Nc1ccc(Cl)cc1 | inconclusive: 1.78 µM [inhibitor, full curve, poor fit] |  |
| COc1ccc(-c2ccc(CN3C(CC(C)C)C(=O)N(Cc4cn(CCC5OCCCO5)nn4)CCS3(=O)=O)cc2)cc1OC (configuration not stated) | inconclusive: 44.7 µM [inhibitor, single point] |  |
| Cc1ccc(-c2noc([C@@H]3C[C@@H](O)CN3CC3CC3)n2)cc1F | inconclusive: 20 µM [inhibitor, full curve, poor fit] |  |
| Cn1cnc2c1c(=O)[nH]c(=O)n2Cc1ccccc1 | inconclusive: 50.1 µM [inhibitor, single point] |  |
| Oc1ccc(-c2csc(Nc3cccnc3)n2)cc1 | inconclusive: 50.1 µM [inhibitor, partial curve, poor fit] |  |
| C#CCOCCOCCOCCNc1nc(N2CCN(C(=O)Cn3cc(CCCCN)nn3)CC2)nc(N2CCN(C(=O)[C@H](CCCCN)n3cc(CCCC)nn3)CC2)n1 | inconclusive: 31.6 µM [inhibitor, partial curve, poor fit] |  |

Next part:

| SMILES | Potency | activity change, negative = inhibition |
| --- | --- | --- |
| Cc1ccc(C)c(-c2csc(N)c2C#N)c1 | inconclusive: 39.8 µM [inhibitor, partial curve, poor fit] |  |
| COc1ccc(/C=N/Nc2ccccc2C(=O)O)cc1 | inconclusive: 31.6 µM [inhibitor, single point] |  |
| c1ccc(CNc2cc(-c3cccnc3)ncn2)cc1 | inconclusive: 5.01 µM [inhibitor, full curve, poor fit] |  |
| Cc1nc(-c2c3n(c(=O)n(CC(=O)NCc4ccc(F)cc4)c2=O)CCCCC3)no1 | inconclusive: 0.794 µM [inhibitor, full curve, poor fit] |  |
| COC(=O)N1CCC2(CC1)CCN(c1cccc(-c3ccccc3)c1)CC2 | inconclusive: 39.8 µM [inhibitor, single point] |  |
| O=C(NC1CCCCC1)C(c1ccnc2ccccc12)n1c(=O)c(-c2ccco2)nc2ccccc21 (configuration not stated) | inconclusive: 50.1 µM [inhibitor, partial curve, poor fit] |  |
| Cc1cc(OCc2nn[nH]n2)c2c(C)c(CC(=O)O)c(=O)oc2c1 | inconclusive: 50.1 µM [inhibitor, partial curve, poor fit] |  |
| O=C(/C=C/c1cccc(Cl)c1)Nc1ncccn1 |  | inactive: 10.4% |
| CC(C)c1cccc(C(C)C)c1OCCCCCN1CCOCC1 | inconclusive: 39.8 µM [inhibitor, partial curve, poor fit] |  |
| CCCCOC(=O)c1ccc(NC(=O)CN2C(=O)NC3(CCCCCC3)C2=O)cc1 |  | inactive: 5.11% |
| CCN1C(=O)CCN(C(=O)c2ccc(C)nc2)CC12CCOCC2 |  | inactive: 27.1% |
| CCOc1ccc(N2C(=O)c3cc(-c4ccco4)nn3CC2(C)C(=O)NC2CCCCC2)cc1 (configuration not stated) | inconclusive: 31.6 µM [inhibitor, full curve, poor fit] |  |
| NS(=O)(=O)c1ccc(CNC(=O)/C=C/c2ccco2)cc1 |  | inactive: 1.53% |
| COC(=O)c1cccc(CNc2ccc3c4c(cccc24)CC3)c1 | inconclusive: 0.251 µM [inhibitor, full curve, poor fit] |  |
| CC(C)C(=O)N1Cc2ccccc2CC2(CCCCN2C)C1 (configuration not stated) |  | inactive: 8.71% [at 6.33 µM] |
| COc1ccc(C2=CC(c3c(F)cccc3Cl)n3nnnc3N2)cc1 (configuration not stated) | active: 39.8 µM |  |
| CC(C)(C)N1CC(c2nc3ccccc3n2Cc2cccc3ccccc23)CC1=O (configuration not stated) | inconclusive: 20 µM [inhibitor, partial curve, poor fit] |  |
| CCOC(=O)c1cc([N+](=O)[O-])cc([N+](=O)[O-])c1Sc1ncnc2nc[nH]c12 |  | inactive: -24.8% |
| COc1cccc(NC(=S)N/N=C2\CC3CCC2(C)C3(C)C)c1 (configuration not stated) | active: 35.5 µM |  |
| CCn1cc(C(=O)OCC(=O)Nc2ccc(C)c(Cl)c2)c(=O)c2ccc(C)nc21 | inconclusive: 70.8 µM [inhibitor, partial curve, poor fit] |  |
| CC1(C)CC(=O)C(N=Nc2ccc(S(=O)(=O)N3CCOCC3)cc2)=C(O)C1 | inconclusive: 35.5 µM [inhibitor, single point] |  |
